Measurements reported in PubChem BioAssay AID1224828 (NIAID, 2016).
Here is one part, drawn at random, of about 17,000 reagents. 762 of all reagents (4.5%) count as active. 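Active calls include both raised and lowered p65 entry, mostly lowered; wells with fewer than 50 cells lack a z-score.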 The raw values are shown without normalisation.

Purpose: 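Find genes required for NF-kappaB p65 moving into the nucleus after LPS in mouse macrophages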 (primary screen)
System: mouse RAW264.7 G9 macrophage reporter cells (GFP-p65, Tnf promoter-mCherry)
Reagent: siRNA pool against mouse genes, 100 nM
Time to read-out: 2 days siRNA transfection, then 40 min LPS before fixation
Treatment: LPS (Salmonella minnesota R595) at 10 ng/ml
Read-out: 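Microscopy ratio of nuclear to perinuclear-ring GFP-p65 signal, scaled to the plate median; gene score is the average of two replicate robust z-scores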
Direction: p65 translocation robust z-score: higher = more nuclear NF-kappaB p65 after LPS than the plate median; nuclear/cytoplasmic p65 ratio: higher = more nuclear NF-kappaB p65
Hit rule: 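Called active when z exceeds 3.3 or falls under -1.56 (median of Tlr4 controls), giving activity score of at least 50; no calls for control wells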
Calls: active = hit (p65 shift raised or lowered); inactive = no clear change

Irf8 (GeneID 15900) — p65 translocation robust z-score: -0.98; nuclear/cytoplasmic p65 ratio, rep 1: 1.32; nuclear/cytoplasmic p65 ratio, rep 2: 1.24; low cell count flag: enough cells to score; call: inactive
Tatdn1 (GeneID 69694) — nuclear/cytoplasmic p65 ratio, rep 1: 1.59; nuclear/cytoplasmic p65 ratio, rep 2: 1.25; low cell count flag: fewer than 50 cells per well; well left out of scoring; call: inactive
Ptprb (GeneID 19263) — p65 translocation robust z-score: 0.32; nuclear/cytoplasmic p65 ratio, rep 1: 1.46; nuclear/cytoplasmic p65 ratio, rep 2: 1.52; low cell count flag: enough cells to score; call: inactive
Ppt2 (GeneID 54397) — p65 translocation robust z-score: -2; nuclear/cytoplasmic p65 ratio, rep 1: 1.04; nuclear/cytoplasmic p65 ratio, rep 2: 1.06; low cell count flag: enough cells to score; call: active
Bcl7a (GeneID 77045) — p65 translocation robust z-score: -0.5; nuclear/cytoplasmic p65 ratio, rep 1: 1.47; nuclear/cytoplasmic p65 ratio, rep 2: 1.61; low cell count flag: enough cells to score; call: inactive
Arl4c (GeneID 320982) — p65 translocation robust z-score: -1.05; nuclear/cytoplasmic p65 ratio, rep 1: 1.24; nuclear/cytoplasmic p65 ratio, rep 2: 1.34; low cell count flag: enough cells to score; call: inactive
Bcl7b (GeneID 12054) — p65 translocation robust z-score: 1.5; nuclear/cytoplasmic p65 ratio, rep 1: 1.79; nuclear/cytoplasmic p65 ratio, rep 2: 1.88; low cell count flag: enough cells to score; call: inactive
Or1f12 (GeneID 258280) — p65 translocation robust z-score: 3.46; nuclear/cytoplasmic p65 ratio, rep 1: 2; nuclear/cytoplasmic p65 ratio, rep 2: 1.99; low cell count flag: enough cells to score; call: active
Foxe1 (GeneID 110805) — p65 translocation robust z-score: -0.98; nuclear/cytoplasmic p65 ratio, rep 1: 1.3; nuclear/cytoplasmic p65 ratio, rep 2: 1.25; low cell count flag: enough cells to score; call: inactive
Flt3l (GeneID 14256) — p65 translocation robust z-score: 1.23; nuclear/cytoplasmic p65 ratio, rep 1: 1.61; nuclear/cytoplasmic p65 ratio, rep 2: 1.51; low cell count flag: enough cells to score; call: inactive
Usp33 (GeneID 170822) — p65 translocation robust z-score: 0.14; nuclear/cytoplasmic p65 ratio, rep 1: 1.58; nuclear/cytoplasmic p65 ratio, rep 2: 1.48; low cell count flag: enough cells to score; call: inactive
Zftraf1 (GeneID 54151) — p65 translocation robust z-score: 0.73; nuclear/cytoplasmic p65 ratio, rep 1: 1.62; nuclear/cytoplasmic p65 ratio, rep 2: 1.97; low cell count flag: enough cells to score; call: inactive

Entries listed above with an active call, once more:
Ppt2 (GeneID 54397) — p65 translocation robust z-score: -2; nuclear/cytoplasmic p65 ratio, rep 1: 1.04; nuclear/cytoplasmic p65 ratio, rep 2: 1.06; low cell count flag: enough cells to score; call: active
Or1f12 (GeneID 258280) — p65 translocation robust z-score: 3.46; nuclear/cytoplasmic p65 ratio, rep 1: 2; nuclear/cytoplasmic p65 ratio, rep 2: 1.99; low cell count flag: enough cells to score; call: active
